Values from PubChem BioAssay AID1259308 (NCATS, 2017)
Aim: 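Genes whose loss raises luciferase production in HEK293 cells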 (primary screen). Cells: human HEK293 embryonic kidney cells stably expressing firefly luciferase (HEK-CMV-Luc2-Hygro). Reagent: single siRNA against human genes, 0.8 pmol siRNA per well. Timing: 72 h. Read-out: 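Luciferase light (ONE-Glo) measured on one replicate plate set and viability (CellTiter-Glo) on the other, scaled to a negative control siRNA, with robust z-scores and luciferase per cell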. Scale: total luciferase, z-score and total luciferase, % of control: higher = more reporter protein produced. Call rule: 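Active when the median/MAD z-score for overall luciferase is greater than 3; a gene was taken forward for validation with new siRNAs if at least two of its three siRNAs passed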. Meaning of the calls: active = raised luciferase; inactive = no rise.
Shown is a random part of about 59,000 deposited reagents. In the full data, about 1,510 (2.6%) were called active. 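Calls use total luciferase alone and ignore viability, so some active siRNAs may act by altering cell number.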 Reagents against one gene are numbered here. Not all columns of the deposit are shown. Reagent sequences are not shown.

Against TAP1 (transporter 1, ATP binding cassette subfamily B member) #1, the entry reads total luciferase, z-score -0.922; total luciferase, % of control 63.6; inactive. For TAP1 (transporter 1, ATP binding cassette subfamily B member) #2 the deposit lists total luciferase, z-score 0.331; total luciferase, % of control 88.5; inactive. After knock-down of TAP1 (transporter 1, ATP binding cassette subfamily B member) #3, the screen gave total luciferase, z-score -1.43; total luciferase, % of control 53.5; inactive. Knock-down of FRRS1L (ferric chelate reductase 1 like) #1 resulted in: total luciferase, z-score -0.199; total luciferase, % of control 77.9; inactive. For FRRS1L (ferric chelate reductase 1 like) #2, the entry reads total luciferase, z-score -0.971; total luciferase, % of control 62.6; inactive. For FRRS1L (ferric chelate reductase 1 like) #3, the values are total luciferase, z-score 0.822; total luciferase, % of control 98.2; inactive.

For PACSIN1 (protein kinase C and casein kinase substrate in neurons 1) #1, the entry reads total luciferase, z-score 4.71; total luciferase, % of control 176; active. PACSIN1 (protein kinase C and casein kinase substrate in neurons 1) #2 gave total luciferase, z-score -0.421; total luciferase, % of control 73.5; inactive. Against PACSIN1 (protein kinase C and casein kinase substrate in neurons 1) #3, the values are total luciferase, z-score 1.64; total luciferase, % of control 115; inactive. After knock-down of GLMP (glycosylated lysosomal membrane protein) #1 the results were total luciferase, z-score 1.76; total luciferase, % of control 117; inactive. GLMP (glycosylated lysosomal membrane protein) #2 showed total luciferase, z-score 0.433; total luciferase, % of control 90.5; inactive. With knock-down of GLMP (glycosylated lysosomal membrane protein) #3, the record shows total luciferase, z-score 1.36; total luciferase, % of control 109; inactive.

After knock-down of PSMD6 (proteasome 26S subunit, non-ATPase 6) #1 the results were total luciferase, z-score 1.7; total luciferase, % of control 116; inactive. Silencing of PSMD6 (proteasome 26S subunit, non-ATPase 6) #2 gave: total luciferase, z-score 0.127; total luciferase, % of control 84.4; inactive. Silencing of PSMD6 (proteasome 26S subunit, non-ATPase 6) #3 gave: total luciferase, z-score 0.927; total luciferase, % of control 100; inactive. For UBAP2 (ubiquitin associated protein 2) #1, the values are total luciferase, z-score 0.449; total luciferase, % of control 90.8; inactive. Against UBAP2 (ubiquitin associated protein 2) #2, the entry reads total luciferase, z-score -0.952; total luciferase, % of control 63; inactive. After knock-down of UBAP2 (ubiquitin associated protein 2) #3 the results were total luciferase, z-score -0.824; total luciferase, % of control 65.5; inactive.

Hits, of those listed so far:
PACSIN1 (protein kinase C and casein kinase substrate in neurons 1) #1 → total luciferase, z-score = 4.71; total luciferase, % of control = 176; call = active

The listing continues:
HECTD2 (HECT domain E3 ubiquitin protein ligase 2) #1 showed total luciferase, z-score -0.693; total luciferase, % of control 68.1; inactive. With knock-down of HECTD2 (HECT domain E3 ubiquitin protein ligase 2) #2, the record shows total luciferase, z-score -0.265; total luciferase, % of control 76.6; inactive. For HECTD2 (HECT domain E3 ubiquitin protein ligase 2) #3 the deposit lists total luciferase, z-score -1.39; total luciferase, % of control 54.1; inactive. Depletion of CIB2 (calcium and integrin binding family member 2) #1 gave: total luciferase, z-score 0.201; total luciferase, % of control 85.9; inactive. CIB2 (calcium and integrin binding family member 2) #2 scored total luciferase, z-score -2.15; total luciferase, % of control 39.1; inactive. After knock-down of CIB2 (calcium and integrin binding family member 2) #3, the record shows total luciferase, z-score -1.26; total luciferase, % of control 56.8; inactive.

SLC35D3 #1 scored total luciferase, z-score -0.144; total luciferase, % of control 79; inactive. SLC35D3 #2 scored total luciferase, z-score -0.277; total luciferase, % of control 76.4; inactive. After knock-down of SLC35D3 #3 the results were total luciferase, z-score 0.157; total luciferase, % of control 85; inactive. After knock-down of PRORSD1P #1, the screen gave total luciferase, z-score 0.0681; total luciferase, % of control 83.2; inactive. Depletion of PRORSD1P #2 came out at: total luciferase, z-score -0.448; total luciferase, % of control 73; inactive. Against PRORSD1P #3, the values are total luciferase, z-score 0.0788; total luciferase, % of control 83.5; inactive.

FGFBP1 (fibroblast growth factor binding protein 1) #1 scored total luciferase, z-score -1.52; total luciferase, % of control 51.7; inactive. FGFBP1 (fibroblast growth factor binding protein 1) #2 scored total luciferase, z-score 0.293; total luciferase, % of control 87.7; inactive. FGFBP1 (fibroblast growth factor binding protein 1) #3 gave total luciferase, z-score 1.41; total luciferase, % of control 110; inactive.
